For one substance, binding results are on record in publication PMC10621130.

This assay has as its target T1, Novel (nua) kinase family 1 (NUAK1) (human (endogenous in KYSE30)) (UniProt O60285).
T1 sequence: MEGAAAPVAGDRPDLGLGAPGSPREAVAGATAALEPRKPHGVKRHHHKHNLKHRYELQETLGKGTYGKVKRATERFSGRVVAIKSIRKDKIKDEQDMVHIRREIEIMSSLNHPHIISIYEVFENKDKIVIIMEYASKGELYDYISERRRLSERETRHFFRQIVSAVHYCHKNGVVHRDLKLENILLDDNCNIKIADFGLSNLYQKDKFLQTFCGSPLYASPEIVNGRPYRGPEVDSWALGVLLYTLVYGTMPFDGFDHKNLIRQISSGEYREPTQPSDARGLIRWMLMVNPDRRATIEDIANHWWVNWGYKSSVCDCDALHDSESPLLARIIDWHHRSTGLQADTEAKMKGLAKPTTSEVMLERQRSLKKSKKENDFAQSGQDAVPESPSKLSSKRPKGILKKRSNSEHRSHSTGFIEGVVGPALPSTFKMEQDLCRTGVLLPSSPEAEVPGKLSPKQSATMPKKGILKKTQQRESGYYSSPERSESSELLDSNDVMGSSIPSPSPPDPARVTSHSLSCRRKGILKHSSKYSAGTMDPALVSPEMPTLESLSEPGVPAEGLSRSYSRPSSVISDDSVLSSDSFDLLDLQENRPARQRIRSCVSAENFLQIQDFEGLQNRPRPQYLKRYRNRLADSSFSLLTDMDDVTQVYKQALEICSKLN
Description: co-IP; KYSE30 cell lysates (lysis buffer with protease and phosphatase inhibitors) immunoprecipitated with anti-NUAK1, anti-JNK or control IgG and protein A magnetic beads overnight; washed three times; Western blot.

Results are given in words; binding and its absence hold for the method and conditions named. In cells and extracts the contact can be indirect. Binding calls can cover weak binding; strength is not graded here.

As to “JNK (human (endogenous in KYSE30)) (enzyme)”, the binding entry is reported as “binds”.
